Results reported in the supplement of paper PMC11438910.
This is one part of the list. Most of these values are background signal.

Assays:
Experiment in all cases: fluorescence intensity of antibody binding to polysaccharide-coupled beads; higher = stronger binding
[1] = target: pneumococcal polysaccharide Pn33B
[2] = target: pneumococcal polysaccharide Pn33C
[3] = target: pneumococcal polysaccharide Pn33D
[4] = target: pneumococcal polysaccharide Pn33F
[5] = target: pneumococcal polysaccharide Pn34
[6] = target: pneumococcal polysaccharide Pn35A
[7] = target: pneumococcal polysaccharide Pn35B
[8] = target: pneumococcal polysaccharide Pn35C
[9] = target: pneumococcal polysaccharide Pn35F
[10] = target: pneumococcal polysaccharide Pn36
[11] = target: pneumococcal polysaccharide Pn37
[12] = target: pneumococcal polysaccharide Pn38
[13] = target: pneumococcal polysaccharide Pn39
[14] = target: pneumococcal polysaccharide Pn4
[15] = target: pneumococcal polysaccharide Pn40
[16] = target: pneumococcal polysaccharide Pn41A
[17] = target: pneumococcal polysaccharide Pn41F
[18] = target: pneumococcal polysaccharide Pn42
[19] = target: pneumococcal polysaccharide Pn43
[20] = target: pneumococcal polysaccharide Pn44
[21] = target: pneumococcal polysaccharide Pn45
[22] = target: pneumococcal polysaccharide Pn46
[23] = target: pneumococcal polysaccharide Pn47A
[24] = antibody concentration 2.8593 ng/mL
[25] = antibody concentration 15.2894 ng/mL
[26] = antibody concentration 81.7561 ng/mL
[27] = antibody concentration 437.17 ng/mL
[28] = antibody concentration 2337.65 ng/mL
[29] = antibody concentration 12500 ng/mL
[30] = antibody concentration 0.1 ng/mL
[31] = antibody concentration 0.534724 ng/mL

B1: 3S41.3 (protein)
chain 1: EVQLVESGGGLVQPGGSLRLSCATSGFTFSNYWMYWFRQAPGKGLEWVSTISGSSSNTYYPDSVKGRFTISRDNAKNTLYLQINSLRAEDTAVYYCARRHDHSSGWAFDYWGQGVLVTVSS
chain 2: EIVMTQSPATLSLSPGERATLSCRASQSVGSNLAWYQQKPGQAPKLLIYDASSRATGIPDRFSGSGSGTDFTLTVSSLEPEDVGVYYCQQYNNWKTFGQGTKVEIK
fluorescence intensity [1, 24]: 16.5 MFI
fluorescence intensity [1, 25]: 18 MFI
fluorescence intensity [1, 26]: 17 MFI
fluorescence intensity [1, 27]: 19 MFI
fluorescence intensity [1, 28]: 24.5 MFI
fluorescence intensity [1, 29]: 57.5 MFI
fluorescence intensity [2, 30]: 19.5 MFI
fluorescence intensity [2, 31]: 18.2 MFI
fluorescence intensity [2, 24]: 18.5 MFI
fluorescence intensity [2, 25]: 18 MFI
fluorescence intensity [2, 26]: 18.5 MFI
fluorescence intensity [2, 27]: 24 MFI
fluorescence intensity [2, 28]: 84.5 MFI
fluorescence intensity [2, 29]: 259 MFI
fluorescence intensity [3, 30]: 17 MFI
fluorescence intensity [3, 31]: 15.5 MFI
fluorescence intensity [3, 24]: 15.5 MFI
fluorescence intensity [3, 25]: 14.5 MFI
fluorescence intensity [3, 26]: 14 MFI
fluorescence intensity [3, 27]: 17 MFI
fluorescence intensity [3, 28]: 33.2 MFI
fluorescence intensity [3, 29]: 95.2 MFI
fluorescence intensity [4, 30]: 11 MFI
fluorescence intensity [4, 31]: 13 MFI
fluorescence intensity [4, 24]: 13 MFI
fluorescence intensity [4, 25]: 12.5 MFI
fluorescence intensity [4, 26]: 17 MFI
fluorescence intensity [4, 27]: 91 MFI
fluorescence intensity [4, 28]: 921 MFI
fluorescence intensity [4, 29]: 1820 MFI
fluorescence intensity [5, 30]: 13 MFI
fluorescence intensity [5, 31]: 13 MFI
fluorescence intensity [5, 24]: 14.5 MFI
fluorescence intensity [5, 25]: 12.8 MFI
fluorescence intensity [5, 26]: 15 MFI
fluorescence intensity [5, 27]: 16 MFI
fluorescence intensity [5, 28]: 30.2 MFI
fluorescence intensity [5, 29]: 70.8 MFI
fluorescence intensity [6, 30]: 16.2 MFI
fluorescence intensity [6, 31]: 16.2 MFI
fluorescence intensity [6, 24]: 16 MFI
fluorescence intensity [6, 25]: 15.8 MFI
fluorescence intensity [6, 26]: 16.2 MFI
fluorescence intensity [6, 27]: 26.5 MFI
fluorescence intensity [6, 28]: 171 MFI
fluorescence intensity [6, 29]: 623 MFI
fluorescence intensity [7, 30]: 16.8 MFI
fluorescence intensity [7, 31]: 17.2 MFI
fluorescence intensity [7, 24]: 17 MFI
fluorescence intensity [7, 25]: 17 MFI
fluorescence intensity [7, 26]: 17.5 MFI
fluorescence intensity [7, 27]: 24 MFI
fluorescence intensity [7, 28]: 108 MFI
fluorescence intensity [7, 29]: 417 MFI
fluorescence intensity [8, 30]: 19.5 MFI
fluorescence intensity [8, 31]: 19 MFI
fluorescence intensity [8, 24]: 18.5 MFI
fluorescence intensity [8, 25]: 21.5 MFI
fluorescence intensity [8, 26]: 18.5 MFI
fluorescence intensity [8, 27]: 19.5 MFI
fluorescence intensity [8, 28]: 25.8 MFI
fluorescence intensity [8, 29]: 54.5 MFI
fluorescence intensity [9, 30]: 20 MFI
fluorescence intensity [9, 31]: 17 MFI
fluorescence intensity [9, 24]: 18 MFI
fluorescence intensity [9, 25]: 24.5 MFI
fluorescence intensity [9, 26]: 14.8 MFI
fluorescence intensity [9, 27]: 19.2 MFI
fluorescence intensity [9, 28]: 25 MFI
fluorescence intensity [9, 29]: 56 MFI
fluorescence intensity [10, 30]: 14.5 MFI
fluorescence intensity [10, 31]: 14.5 MFI
fluorescence intensity [10, 24]: 15.5 MFI
fluorescence intensity [10, 25]: 16 MFI
fluorescence intensity [10, 26]: 17.5 MFI
fluorescence intensity [10, 27]: 53.5 MFI
fluorescence intensity [10, 28]: 360 MFI
fluorescence intensity [10, 29]: 805 MFI
fluorescence intensity [11, 30]: 24 MFI
fluorescence intensity [11, 31]: 24.5 MFI
fluorescence intensity [11, 24]: 24.5 MFI
fluorescence intensity [11, 25]: 27 MFI
fluorescence intensity [11, 26]: 31.5 MFI
fluorescence intensity [11, 27]: 151 MFI
fluorescence intensity [11, 28]: 1170 MFI
fluorescence intensity [11, 29]: 2060 MFI
fluorescence intensity [12, 30]: 24.5 MFI
fluorescence intensity [12, 31]: 25.2 MFI
fluorescence intensity [12, 24]: 24 MFI
fluorescence intensity [12, 25]: 24.5 MFI
fluorescence intensity [12, 26]: 25 MFI
fluorescence intensity [12, 27]: 29 MFI
fluorescence intensity [12, 28]: 42.2 MFI
fluorescence intensity [12, 29]: 130 MFI
fluorescence intensity [13, 30]: 18.5 MFI
fluorescence intensity [13, 31]: 17 MFI
fluorescence intensity [13, 24]: 18.2 MFI
fluorescence intensity [13, 25]: 19 MFI
fluorescence intensity [13, 26]: 19 MFI
fluorescence intensity [13, 27]: 24 MFI
fluorescence intensity [13, 28]: 101 MFI
fluorescence intensity [13, 29]: 394 MFI
fluorescence intensity [14, 30]: 17.8 MFI
fluorescence intensity [14, 31]: 16.5 MFI
fluorescence intensity [14, 24]: 18.5 MFI
fluorescence intensity [14, 25]: 17.8 MFI
fluorescence intensity [14, 26]: 22.8 MFI
fluorescence intensity [14, 27]: 28.5 MFI
fluorescence intensity [14, 28]: 47.5 MFI
fluorescence intensity [14, 29]: 87.5 MFI
fluorescence intensity [15, 30]: 16.2 MFI
fluorescence intensity [15, 31]: 16 MFI
fluorescence intensity [15, 24]: 15.2 MFI
fluorescence intensity [15, 25]: 16 MFI
fluorescence intensity [15, 26]: 19 MFI
fluorescence intensity [15, 27]: 63.5 MFI
fluorescence intensity [15, 28]: 530 MFI
fluorescence intensity [15, 29]: 1140 MFI
fluorescence intensity [16, 30]: 24 MFI
fluorescence intensity [16, 31]: 21.2 MFI
fluorescence intensity [16, 24]: 22.5 MFI
fluorescence intensity [16, 25]: 21.5 MFI
fluorescence intensity [16, 26]: 24 MFI
fluorescence intensity [16, 27]: 28 MFI
fluorescence intensity [16, 28]: 32.2 MFI
fluorescence intensity [16, 29]: 50.5 MFI
fluorescence intensity [17, 30]: 12.2 MFI
fluorescence intensity [17, 31]: 12 MFI
fluorescence intensity [17, 24]: 11.5 MFI
fluorescence intensity [17, 25]: 12 MFI
fluorescence intensity [17, 26]: 14.5 MFI
fluorescence intensity [17, 27]: 17.5 MFI
fluorescence intensity [17, 28]: 38.5 MFI
fluorescence intensity [17, 29]: 80.5 MFI
fluorescence intensity [18, 30]: 11 MFI
fluorescence intensity [18, 31]: 12 MFI
fluorescence intensity [18, 24]: 11 MFI
fluorescence intensity [18, 25]: 12 MFI
fluorescence intensity [18, 26]: 12.5 MFI
fluorescence intensity [18, 27]: 26 MFI
fluorescence intensity [18, 28]: 179 MFI
fluorescence intensity [18, 29]: 387 MFI
fluorescence intensity [19, 30]: 13.5 MFI
fluorescence intensity [19, 31]: 15 MFI
fluorescence intensity [19, 24]: 15.2 MFI
fluorescence intensity [19, 25]: 16.5 MFI
fluorescence intensity [19, 26]: 21 MFI
fluorescence intensity [19, 27]: 113 MFI
fluorescence intensity [19, 28]: 1000 MFI
fluorescence intensity [19, 29]: 1970 MFI
fluorescence intensity [20, 30]: 24.5 MFI
fluorescence intensity [20, 31]: 23.5 MFI
fluorescence intensity [20, 24]: 24.5 MFI
fluorescence intensity [20, 25]: 22.5 MFI
fluorescence intensity [20, 26]: 25.5 MFI
fluorescence intensity [20, 27]: 27.5 MFI
fluorescence intensity [20, 28]: 40.2 MFI
fluorescence intensity [20, 29]: 74.2 MFI
fluorescence intensity [21, 30]: 10.2 MFI
fluorescence intensity [21, 31]: 10.5 MFI
fluorescence intensity [21, 24]: 11 MFI
fluorescence intensity [21, 25]: 11.5 MFI
fluorescence intensity [21, 26]: 11 MFI
fluorescence intensity [21, 27]: 13 MFI
fluorescence intensity [21, 28]: 17 MFI
fluorescence intensity [21, 29]: 31.2 MFI
fluorescence intensity [22, 30]: 22 MFI
fluorescence intensity [22, 31]: 23 MFI
fluorescence intensity [22, 24]: 23 MFI
fluorescence intensity [22, 25]: 22.5 MFI
fluorescence intensity [22, 26]: 26 MFI
fluorescence intensity [22, 27]: 50.5 MFI
fluorescence intensity [22, 28]: 287 MFI
fluorescence intensity [22, 29]: 744 MFI
fluorescence intensity [23, 30]: 16.2 MFI
fluorescence intensity [23, 31]: 15 MFI
fluorescence intensity [23, 24]: 15 MFI
fluorescence intensity [23, 25]: 15 MFI
fluorescence intensity [23, 26]: 15.5 MFI
fluorescence intensity [23, 27]: 22 MFI
